PubChem BioAssay AID694 (Emory University Molecular Libraries Screening Center, 2007)
Values joined by “and” are separate entries in the source; they are usually repeats but may differ in a detail not shown here. Equal entries are not always repeated. The list shows a part of the results. Further columns of the screen follow, without active or inactive calls.

Amino acid sequences for entries named in this document (tags omitted).
UniProt P03372, whole entry, looked up: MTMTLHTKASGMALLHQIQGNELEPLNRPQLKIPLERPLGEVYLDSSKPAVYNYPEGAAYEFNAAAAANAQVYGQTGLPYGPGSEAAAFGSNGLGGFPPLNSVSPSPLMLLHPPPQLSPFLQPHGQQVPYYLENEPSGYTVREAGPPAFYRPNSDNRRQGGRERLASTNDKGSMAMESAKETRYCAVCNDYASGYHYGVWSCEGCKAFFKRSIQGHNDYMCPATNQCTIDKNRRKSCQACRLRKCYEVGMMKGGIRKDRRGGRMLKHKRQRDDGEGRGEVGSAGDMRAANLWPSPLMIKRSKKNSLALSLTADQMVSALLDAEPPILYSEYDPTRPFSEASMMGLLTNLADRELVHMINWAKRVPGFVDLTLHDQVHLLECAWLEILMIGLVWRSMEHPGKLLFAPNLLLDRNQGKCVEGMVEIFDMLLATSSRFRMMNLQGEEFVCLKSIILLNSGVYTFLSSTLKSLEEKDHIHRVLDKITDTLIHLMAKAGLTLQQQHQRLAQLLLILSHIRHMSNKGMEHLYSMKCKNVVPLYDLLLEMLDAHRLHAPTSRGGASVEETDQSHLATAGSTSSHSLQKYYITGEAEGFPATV

molecular target: Estrogen receptor (Homo sapiens) (UniProt P03372); experiment: blockers of coactivator recruitment to ERα – biochemical, LOPAC library, TR-FRET, primary screen (AID 694); details: TR-FRET ERalpha-coactivator peptide binding, at 15 µM, stronger effect = higher value;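 further: receptor was agonist-bound with estradiol present during the assay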

**Q.** With NOCC(=O)O as the molecule, how does the inhibition read?
**A.** -4.58%

**Q.** For CCc1cccc2c3c([nH]c12)C(CC)(CC(=O)O)OCC3 (stereo not given), which inhibition is on record?
**A.** -0.46%

**Q.** How did the inhibition turn out when O=C1N(c2ccccc2)c2ccccc2C1(Cc1ccncc1)Cc1ccncc1 was run?
**A.** 0.22%

**Q.** CCCn1c(=O)c2[nH]c(-c3ccc(S(=O)(=O)O)cc3)nc2n(CCC)c1=O was tested. Which inhibition did it give?
**A.** -3.46%

**Q.** OC(CCN1CCCCC1)(c1ccccc1)C1CCCCC1 (stereo not given) was tested. Which inhibition did it give?
**A.** 3.29%

**Q.** Cc1cn([C@H]2C[C@@H](N=[N+]=[N-])[C@@H](CO)O2)c(=O)[nH]c1=O was tested. Which inhibition did it give?
**A.** -0.55%

**Q.** How did the inhibition turn out when O=C(O)c1cc(=O)c2ccc(Cl)cc2[nH]1 was run?
**A.** -2.77%

**Q.** How did the inhibition turn out when CCCCCCCCCCCCCCCCCC(=O)OC(CC(=O)O)C[N+](C)(C)C (stereo not given) was run?
**A.** 2.65%

**Q.** NCCS(=O)O was tested. Which inhibition did it give?
**A.** 1.83%

**Q.** With Cc1nc2n(c(=O)c1CCN1CCC(c3noc4cc(F)ccc34)CC1)CCCC2 as the molecule, how does the inhibition read?
**A.** 0.2%

**Q.** OCc1cc(C(O)CNCCCCCCOCCCCc2ccccc2)ccc1O (stereo not given) was tested. Which inhibition did it give?
**A.** 0.91%

**Q.** With C#CCN1C(C)=C(C(=O)OC)C(c2cccc([N+](=O)[O-])c2)C(C(=O)OCC)=C1C (stereo not given) as the molecule, how does the inhibition read?
**A.** 0.98%

**Q.** With COC(=O)[C@@H]1[C@H]2C[C@H]3c4[nH]c5ccccc5c4CCN3C[C@@H]2CC[C@@H]1O as the molecule, how does the inhibition read?
**A.** -7.57%

**Q.** O=C1CCc2cc(OCCCCc3nnnn3C3CCCCC3)ccc2N1 was tested. Which inhibition did it give?
**A.** -4.91%

**Q.** Which inhibition does the source give for CCCCCCCC/C=C\CCCCCCCC(=O)NCCc1ccc(O)c(O)c1 here?
**A.** -2.26%

**Q.** CC1CN(S(=O)(=O)c2cccc3cnccc23)CCN1 (stereo not given) was tested. Which inhibition did it give?
**A.** 2.08%

**Q.** How did the inhibition turn out when CCOC(=O)C1=C[C@]2(CC)CCCN3CCc4c(n1c1ccccc41)[C@@H]32 was run?
**A.** 7.02%

**Q.** With CNCCC(Oc1ccccc1OC)c1ccccc1 (stereo not given) as the molecule, how does the inhibition read?
**A.** 4.35%

**Q.** With CC1CNCCN1S(=O)(=O)c1cccc2cnccc12 (stereo not given) as the molecule, how does the inhibition read?
**A.** 0.6% and 1.64%

**Q.** Which inhibition does the source give for O=C1C2C=CC=CC2=NC(=S)N1CCN1CCC(=C(c2ccc(F)cc2)c2ccc(F)cc2)CC1 (stereo not given) here?
**A.** -0.24%

**Q.** For CN1[C@@H](CC(=O)c2ccccc2)CCC[C@H]1C[C@H](O)c1ccccc1, which inhibition is on record?
**A.** 2.91%

**Q.** How did the inhibition turn out when Cc1[nH]c(=O)c(C#N)cc1-c1ccncc1 was run?
**A.** 2.68%

**Q.** For CN(C)CCC=C1c2ccccc2CCc2ccccc21, which inhibition is on record?
**A.** 4.1%

**Q.** How did the inhibition turn out when NC(=O)C(=O)O was run?
**A.** -2.52%

**Q.** With COc1cc(Cc2cnc(N)nc2N)cc(OC)c1OC as the molecule, how does the inhibition read?
**A.** 15%

**Q.** CN(C)c1cc2c(Nc3ccc4c(cnn4Cc4ccccc4)c3)ncnc2cn1 was tested. Which inhibition did it give?
**A.** -0.38%

**Q.** For NC(N)=NCc1cccc(I)c1, which inhibition is on record?
**A.** -3.52%

**Q.** How did the inhibition turn out when CC(C)COC(=O)OCN1C(=O)CN(CCN2CC(=O)N(COC(=O)OCC(C)C)C(=O)C2)CC1=O was run?
**A.** 1.43%

**Q.** How did the inhibition turn out when CN[C@H](CC(C)C)C(=O)N[C@H]1C(=O)N[C@@H](CC(N)=O)C(=O)N[C@H]2C(=O)N[C@H]3C(=O)N[C@H](C(=O)N[C@H](C(=O)O)c4cc(O)cc(O)c4-c4cc3ccc4O)[C@H](O)c3ccc(c(Cl)c3)Oc3cc2cc(c3O[C@@H]2O[C@H](CO)[C@@H](O)[C@H](O)[C@H]2O[C@H]2C[C@](C)(N)[C@H](O)[C@H](C)O2)Oc2ccc(cc2Cl)[C@H]1O was run?
**A.** 3.29%

**Q.** How did the inhibition turn out when COc1ccc2c(c1)CCC1C2CC[C@@]2(C)C1CC[C@@H]2NCCCCCCN1C(=O)C=CC1=O (stereo not given in full) was run?
**A.** 15.4%

**Q.** For NC(=S)c1ccc[n+]([C@@H]2O[C@@H](COP(=O)([O-])OP(=O)(O)OC[C@H]3O[C@@H](n4cnc5c(N)ncnc54)C(OP(=O)(O)O)[C@H]3O)C(O)C2O)c1 (stereo not given in full), which inhibition is on record?
**A.** 3.63%

**Q.** How did the inhibition turn out when CCCCC/C=C\CC(O)/C=C/c1cccc(CC(O)CCCCO)n1 (stereo not given) was run?
**A.** 4.45%

**Q.** Which inhibition does the source give for O=C(O)c1ccccc1Nc1ccccc1 here?
**A.** -4.54%

**Q.** Which inhibition does the source give for CN1CCN(C2=Nc3cc(Cl)ccc3Nc3ccccc32)CC1 here?
**A.** -4.51%

**Q.** Which inhibition does the source give for C[C@H](Cc1ccccc1)Nc1ncnc2c1ncn2[C@@H]1O[C@H](CO)[C@H](O)C1O (stereo not given in full) here?
**A.** 3.1%

**Q.** NC(Cc1cccc(-c2ccccc2CP(=O)(O)O)c1)C(=O)O (stereo not given) was tested. Which inhibition did it give?
**A.** 2.23%

**Q.** How did the inhibition turn out when NCCCCNCCCN was run?
**A.** -5.98%

**Q.** For CC(C)NC[C@H](O)COc1ccc(CC(N)=O)cc1, which inhibition is on record?
**A.** -2.11%

**Q.** For CCOC(=O)C(C)(C)Oc1ccc(Cl)cc1, which inhibition is on record?
**A.** -2.66%

**Q.** With CC(N)=NCCCC[C@@H](N)C(=O)O as the molecule, how does the inhibition read?
**A.** 1.12%

**Q.** For CO[C@@]1(NC(=O)CSCC#N)C(=O)N2C(C(=O)O)=C(CSc3nnnn3C)CS[C@@H]21, which inhibition is on record?
**A.** 9.31%

**Q.** With CN1CCC(=C2c3ccccc3CC(=O)c3sccc32)CC1 as the molecule, how does the inhibition read?
**A.** -6.19%

**Q.** Which inhibition does the source give for O=c1ccc2ccc(O)c(O)c2o1 here?
**A.** 11.7%

**Q.** How did the inhibition turn out when CN1CCc2ccccc2Cc2[nH]c3ccccc3c2CC1 was run?
**A.** 1.86%

**Q.** Which inhibition does the source give for O=C(O)CCC(=O)N1CCCC1C(=O)O (stereo not given) here?
**A.** 2.06%

**Q.** Which inhibition does the source give for CSc1ccc(C(=O)c2[nH]c(=O)[nH]c2C)cc1 here?
**A.** 4.42%

**Q.** With S=C(Nc1ccccc1)Nc1nccs1 as the molecule, how does the inhibition read?
**A.** -3.09%

**Q.** With CN(Cc1cnc2nc(N)nc(N)c2n1)c1ccc(C(=O)N[C@@H](CCC(=O)O)C(=O)O)cc1 as the molecule, how does the inhibition read?
**A.** -7.46%

**Q.** For CCCCCCCCCC(=O)NC(CN1CCOCC1)[C@H](O)c1ccccc1 (stereo not given in full), which inhibition is on record?
**A.** 7.7%

**Q.** Which inhibition does the source give for COc1cc2c(CCNC(C)=O)c[nH]c2cc1Cl here?
**A.** -2.79%

**Q.** With Cc1ccc(S(=O)(=O)NC(=O)NN2CCCCCC2)cc1 as the molecule, how does the inhibition read?
**A.** 6.33%

**Q.** Which inhibition does the source give for C=CCn1c(=O)c2c(nc(-c3ccc(S(=O)(=O)O)cc3)n2C)n(C)c1=O here?
**A.** -4.56%

**Q.** Which inhibition does the source give for COc1cc(-c2ccc(=O)[nH]n2)ccc1OC(F)F here?
**A.** 4.69%

**Q.** How did the inhibition turn out when CC(N)=NCCC[C@H](N)C(=O)O was run?
**A.** -1.21%

**Q.** With CCCCNc1c(C(=O)OCC)c(C)nc2c1cnn2CC as the molecule, how does the inhibition read?
**A.** 7.16%

**Q.** With O=c1[nH]c(=O)n([C@H]2C[C@H](O)[C@@H](CO)O2)cc1Br as the molecule, how does the inhibition read?
**A.** -0.87%

**Q.** Which inhibition does the source give for Nc1ccc(CCNc2ncnc3c2ncn3C2OC(CO)C(O)C2O)cc1 (stereo not given) here?
**A.** -21.8%

**Q.** For NC(N)=Nc1nc(CSCC/C(N)=N/S(N)(=O)=O)cs1, which inhibition is on record?
**A.** 2.25%

**Q.** For NC1C=CC=C(C(=O)O)C1 (stereo not given), which inhibition is on record?
**A.** -0.85%

**Q.** How did the inhibition turn out when CC1=C(/C=C/C(C)=C/C=C/C(C)=C\C(=O)O)C(C)(C)CCC1 was run?
**A.** 2.09%

**Q.** How did the inhibition turn out when CC(C)c1ccc2c(c1)c(SC(C)(C)C)c(CC(C)(C)C(=O)O)n2Cc1ccc(Cl)cc1 was run?
**A.** 27.3%

**Q.** Which inhibition does the source give for Clc1ccc(N2CCN(Cc3c[nH]c4ncccc34)CC2)cc1 here?
**A.** -3.73%

**Q.** How did the inhibition turn out when CC(C)(C)c1ccc(C(O)CCCN2CCC(C(O)(c3ccccc3)c3ccccc3)CC2)cc1 (stereo not given) was run?
**A.** 4.21%

**Q.** How did the inhibition turn out when c1ccc2nc(C3=NCCN3)ccc2c1 was run?
**A.** -2.32%

**Q.** For NCCCNCCSP(=O)(O)O, which inhibition is on record?
**A.** -4.52%

**Q.** Which inhibition does the source give for Nc1ncnc2c1ncn2C1CCCO1 (stereo not given) here?
**A.** 6.44%

**Q.** How did the inhibition turn out when Nc1ccn([C@@H]2O[C@H](CO)[C@@H](O)[C@@H]2O)c(=O)n1 was run?
**A.** -0.14%

**Q.** For CCCCCCCCCCCCCCCCOCC(COCC(F)(F)F)OP(=O)(O)OCO (stereo not given), which inhibition is on record?
**A.** 8.86%

**Q.** Which inhibition does the source give for N[C@@H](Cc1ccc(O)c(I)c1)C(=O)O here?
**A.** 0.02%

**Q.** For CC(C)Cn1c(=O)n(C)c(=O)c2[nH]cnc21, which inhibition is on record?
**A.** -4.17%
